Measured values published in the supplement of paper PMC10849652.
The list shows a part of the results. Residues, ends and D or L forms follow the SMILES beside them. *: point of attachment. Cbz = O=C(OCc1ccccc1)*

Chains of the proteins cited; added tags and fusions are not shown. Lines headed by an entry give the natural chain unless they say otherwise; changes in a name come on top.
UniProt Q9H1I8: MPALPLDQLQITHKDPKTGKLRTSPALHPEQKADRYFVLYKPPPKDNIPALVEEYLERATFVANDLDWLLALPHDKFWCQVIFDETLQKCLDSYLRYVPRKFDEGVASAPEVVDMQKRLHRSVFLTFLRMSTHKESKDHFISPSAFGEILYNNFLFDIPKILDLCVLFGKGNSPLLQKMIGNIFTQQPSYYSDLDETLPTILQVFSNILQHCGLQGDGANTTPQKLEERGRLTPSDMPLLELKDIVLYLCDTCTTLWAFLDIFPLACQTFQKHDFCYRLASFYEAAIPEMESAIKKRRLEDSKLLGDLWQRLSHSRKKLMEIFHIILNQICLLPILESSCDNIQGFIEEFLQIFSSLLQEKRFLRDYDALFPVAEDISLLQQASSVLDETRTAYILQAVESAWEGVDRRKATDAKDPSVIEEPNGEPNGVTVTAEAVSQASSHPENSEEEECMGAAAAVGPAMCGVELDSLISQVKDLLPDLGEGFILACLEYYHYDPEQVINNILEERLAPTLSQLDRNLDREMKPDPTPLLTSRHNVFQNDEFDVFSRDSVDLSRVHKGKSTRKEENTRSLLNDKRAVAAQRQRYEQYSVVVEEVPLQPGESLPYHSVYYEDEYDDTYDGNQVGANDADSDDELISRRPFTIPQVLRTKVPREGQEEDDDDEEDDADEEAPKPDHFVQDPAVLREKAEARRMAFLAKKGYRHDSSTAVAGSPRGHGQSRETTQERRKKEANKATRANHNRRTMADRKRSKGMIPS
UniProt Q76L83: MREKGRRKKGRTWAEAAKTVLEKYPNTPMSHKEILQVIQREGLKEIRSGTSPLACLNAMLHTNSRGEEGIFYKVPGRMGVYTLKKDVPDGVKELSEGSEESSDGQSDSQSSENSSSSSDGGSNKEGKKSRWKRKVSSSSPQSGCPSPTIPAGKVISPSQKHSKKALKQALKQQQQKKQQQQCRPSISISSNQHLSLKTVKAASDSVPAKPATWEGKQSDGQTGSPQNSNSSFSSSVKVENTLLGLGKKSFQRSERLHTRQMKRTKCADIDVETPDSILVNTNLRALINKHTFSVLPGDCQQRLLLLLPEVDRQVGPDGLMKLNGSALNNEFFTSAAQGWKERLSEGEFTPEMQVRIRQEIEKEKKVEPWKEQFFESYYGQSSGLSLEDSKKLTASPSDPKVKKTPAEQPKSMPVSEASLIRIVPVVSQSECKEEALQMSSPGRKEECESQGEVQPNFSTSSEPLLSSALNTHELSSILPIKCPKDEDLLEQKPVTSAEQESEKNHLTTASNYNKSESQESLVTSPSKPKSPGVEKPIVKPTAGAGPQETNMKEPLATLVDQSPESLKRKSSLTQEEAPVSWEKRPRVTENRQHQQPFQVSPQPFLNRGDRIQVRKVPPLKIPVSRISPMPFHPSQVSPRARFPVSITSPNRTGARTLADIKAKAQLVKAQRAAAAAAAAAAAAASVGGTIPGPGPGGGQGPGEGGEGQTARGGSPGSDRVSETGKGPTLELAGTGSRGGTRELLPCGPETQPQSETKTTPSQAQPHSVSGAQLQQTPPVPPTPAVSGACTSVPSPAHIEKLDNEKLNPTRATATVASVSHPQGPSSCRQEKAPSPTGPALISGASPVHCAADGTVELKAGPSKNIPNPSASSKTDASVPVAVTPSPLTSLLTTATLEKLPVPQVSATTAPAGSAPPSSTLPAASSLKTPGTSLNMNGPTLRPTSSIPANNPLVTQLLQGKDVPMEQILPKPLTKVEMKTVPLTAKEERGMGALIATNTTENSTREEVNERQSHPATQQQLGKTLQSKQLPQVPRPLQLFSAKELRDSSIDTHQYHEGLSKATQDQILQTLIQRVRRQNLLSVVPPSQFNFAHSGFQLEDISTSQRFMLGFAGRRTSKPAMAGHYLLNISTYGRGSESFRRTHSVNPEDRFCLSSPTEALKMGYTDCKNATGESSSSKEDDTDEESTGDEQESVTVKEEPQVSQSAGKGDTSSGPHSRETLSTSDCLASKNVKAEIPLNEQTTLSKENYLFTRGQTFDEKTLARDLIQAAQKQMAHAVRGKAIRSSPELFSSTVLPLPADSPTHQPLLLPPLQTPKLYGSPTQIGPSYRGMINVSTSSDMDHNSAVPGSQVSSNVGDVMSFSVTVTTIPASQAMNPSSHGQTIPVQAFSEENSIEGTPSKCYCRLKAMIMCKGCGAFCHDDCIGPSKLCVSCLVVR
UniProt Q8IUR7, whole entry, looked up: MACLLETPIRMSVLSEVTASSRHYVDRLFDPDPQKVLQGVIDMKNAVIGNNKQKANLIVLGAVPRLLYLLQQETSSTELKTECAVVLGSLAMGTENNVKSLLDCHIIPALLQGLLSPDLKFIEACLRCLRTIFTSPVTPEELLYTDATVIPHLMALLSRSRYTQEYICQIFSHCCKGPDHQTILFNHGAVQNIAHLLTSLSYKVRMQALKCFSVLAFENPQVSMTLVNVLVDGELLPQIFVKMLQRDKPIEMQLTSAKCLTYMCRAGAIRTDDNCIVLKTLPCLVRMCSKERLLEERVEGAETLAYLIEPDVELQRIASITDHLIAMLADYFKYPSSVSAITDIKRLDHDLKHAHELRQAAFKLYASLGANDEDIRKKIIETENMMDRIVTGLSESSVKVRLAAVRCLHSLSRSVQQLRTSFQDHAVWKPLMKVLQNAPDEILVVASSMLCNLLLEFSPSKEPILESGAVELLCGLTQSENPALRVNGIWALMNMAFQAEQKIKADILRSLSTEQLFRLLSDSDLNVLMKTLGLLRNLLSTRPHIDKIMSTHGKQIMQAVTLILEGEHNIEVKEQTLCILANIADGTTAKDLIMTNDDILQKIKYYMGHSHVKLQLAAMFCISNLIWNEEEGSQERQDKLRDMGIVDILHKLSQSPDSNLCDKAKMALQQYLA
UniProt P18850: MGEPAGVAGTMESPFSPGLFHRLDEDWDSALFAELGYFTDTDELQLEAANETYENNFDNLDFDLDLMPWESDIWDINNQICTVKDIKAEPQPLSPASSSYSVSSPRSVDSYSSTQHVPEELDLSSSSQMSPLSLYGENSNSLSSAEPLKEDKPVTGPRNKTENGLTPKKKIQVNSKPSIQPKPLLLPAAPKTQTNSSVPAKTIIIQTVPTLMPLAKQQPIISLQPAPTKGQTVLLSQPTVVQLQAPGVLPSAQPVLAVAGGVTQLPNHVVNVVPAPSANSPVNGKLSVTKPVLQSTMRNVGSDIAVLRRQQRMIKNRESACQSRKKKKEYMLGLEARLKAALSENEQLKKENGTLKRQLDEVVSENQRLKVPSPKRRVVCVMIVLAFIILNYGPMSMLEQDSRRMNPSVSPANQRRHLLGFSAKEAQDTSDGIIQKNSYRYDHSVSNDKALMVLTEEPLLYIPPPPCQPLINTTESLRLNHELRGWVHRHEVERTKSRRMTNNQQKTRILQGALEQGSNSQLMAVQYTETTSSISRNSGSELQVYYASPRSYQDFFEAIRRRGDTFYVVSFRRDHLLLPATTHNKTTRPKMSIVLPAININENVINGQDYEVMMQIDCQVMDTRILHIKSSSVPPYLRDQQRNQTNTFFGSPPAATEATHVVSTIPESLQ
UniProt O95260: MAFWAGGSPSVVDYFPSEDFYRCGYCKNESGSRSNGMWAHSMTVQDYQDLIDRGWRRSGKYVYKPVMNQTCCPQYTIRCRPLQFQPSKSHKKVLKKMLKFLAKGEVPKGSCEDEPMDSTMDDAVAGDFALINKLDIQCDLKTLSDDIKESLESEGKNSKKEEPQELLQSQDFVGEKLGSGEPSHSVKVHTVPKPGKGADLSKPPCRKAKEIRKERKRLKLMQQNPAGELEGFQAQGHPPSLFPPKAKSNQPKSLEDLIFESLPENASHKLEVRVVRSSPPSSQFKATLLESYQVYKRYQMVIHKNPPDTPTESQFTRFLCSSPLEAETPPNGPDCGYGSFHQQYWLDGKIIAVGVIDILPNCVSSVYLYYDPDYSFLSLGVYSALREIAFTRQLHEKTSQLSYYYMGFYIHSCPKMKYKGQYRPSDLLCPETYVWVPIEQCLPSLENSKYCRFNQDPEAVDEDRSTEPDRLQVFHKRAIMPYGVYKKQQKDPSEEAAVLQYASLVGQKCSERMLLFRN
UniProt Q6VMQ6: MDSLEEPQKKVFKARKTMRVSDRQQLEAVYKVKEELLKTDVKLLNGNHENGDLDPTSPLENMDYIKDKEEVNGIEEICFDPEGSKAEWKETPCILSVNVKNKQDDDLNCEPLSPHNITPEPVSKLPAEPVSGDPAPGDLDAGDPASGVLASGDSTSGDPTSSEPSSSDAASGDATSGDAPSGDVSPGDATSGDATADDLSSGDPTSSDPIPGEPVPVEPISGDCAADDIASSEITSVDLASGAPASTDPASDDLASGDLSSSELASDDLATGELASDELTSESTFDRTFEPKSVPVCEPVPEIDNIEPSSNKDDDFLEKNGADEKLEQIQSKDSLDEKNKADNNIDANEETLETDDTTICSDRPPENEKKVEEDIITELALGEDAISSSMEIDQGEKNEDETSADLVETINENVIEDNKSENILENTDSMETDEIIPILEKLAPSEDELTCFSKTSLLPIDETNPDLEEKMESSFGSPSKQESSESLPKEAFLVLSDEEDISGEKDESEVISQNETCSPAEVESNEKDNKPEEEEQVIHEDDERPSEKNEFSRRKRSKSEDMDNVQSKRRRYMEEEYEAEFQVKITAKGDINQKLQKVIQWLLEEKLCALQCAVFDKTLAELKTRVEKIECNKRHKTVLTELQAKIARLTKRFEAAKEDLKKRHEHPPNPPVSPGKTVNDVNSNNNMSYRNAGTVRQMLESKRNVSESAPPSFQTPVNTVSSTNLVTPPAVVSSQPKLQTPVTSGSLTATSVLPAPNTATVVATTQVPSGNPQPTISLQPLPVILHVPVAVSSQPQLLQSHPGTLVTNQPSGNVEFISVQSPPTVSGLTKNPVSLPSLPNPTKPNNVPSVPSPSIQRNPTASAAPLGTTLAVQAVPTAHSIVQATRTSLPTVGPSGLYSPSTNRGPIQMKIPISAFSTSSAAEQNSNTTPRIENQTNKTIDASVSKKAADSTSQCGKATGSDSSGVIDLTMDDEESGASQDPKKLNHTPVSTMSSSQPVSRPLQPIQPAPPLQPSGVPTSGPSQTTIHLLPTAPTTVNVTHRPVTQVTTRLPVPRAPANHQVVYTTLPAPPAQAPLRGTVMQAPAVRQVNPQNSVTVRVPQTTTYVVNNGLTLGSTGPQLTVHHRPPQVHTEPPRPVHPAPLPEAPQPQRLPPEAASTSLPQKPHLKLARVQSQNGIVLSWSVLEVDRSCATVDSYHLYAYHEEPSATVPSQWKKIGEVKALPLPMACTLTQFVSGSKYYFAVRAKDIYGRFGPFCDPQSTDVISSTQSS
UniProt Q93050, whole entry, looked up: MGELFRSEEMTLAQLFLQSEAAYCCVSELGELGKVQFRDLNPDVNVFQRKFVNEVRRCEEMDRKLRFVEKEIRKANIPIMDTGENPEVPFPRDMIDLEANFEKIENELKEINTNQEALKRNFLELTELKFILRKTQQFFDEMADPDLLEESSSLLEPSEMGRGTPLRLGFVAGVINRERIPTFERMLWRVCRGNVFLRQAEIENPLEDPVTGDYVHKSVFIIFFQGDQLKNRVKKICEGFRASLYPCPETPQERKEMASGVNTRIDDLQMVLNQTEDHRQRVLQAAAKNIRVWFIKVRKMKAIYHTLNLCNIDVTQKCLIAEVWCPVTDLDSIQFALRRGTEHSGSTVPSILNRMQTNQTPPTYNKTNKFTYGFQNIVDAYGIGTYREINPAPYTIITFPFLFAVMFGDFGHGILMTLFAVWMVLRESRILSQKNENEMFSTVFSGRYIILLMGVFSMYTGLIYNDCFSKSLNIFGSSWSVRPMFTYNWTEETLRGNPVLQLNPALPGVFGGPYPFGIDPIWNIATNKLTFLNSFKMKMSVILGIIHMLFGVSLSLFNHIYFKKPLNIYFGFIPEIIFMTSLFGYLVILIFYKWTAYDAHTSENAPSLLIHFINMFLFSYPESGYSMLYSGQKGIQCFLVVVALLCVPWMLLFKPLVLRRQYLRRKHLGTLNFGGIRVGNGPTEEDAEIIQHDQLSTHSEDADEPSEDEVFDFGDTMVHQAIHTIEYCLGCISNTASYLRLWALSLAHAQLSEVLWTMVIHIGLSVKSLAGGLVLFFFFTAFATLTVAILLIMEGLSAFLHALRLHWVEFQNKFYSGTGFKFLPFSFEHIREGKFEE
UniProt P00966: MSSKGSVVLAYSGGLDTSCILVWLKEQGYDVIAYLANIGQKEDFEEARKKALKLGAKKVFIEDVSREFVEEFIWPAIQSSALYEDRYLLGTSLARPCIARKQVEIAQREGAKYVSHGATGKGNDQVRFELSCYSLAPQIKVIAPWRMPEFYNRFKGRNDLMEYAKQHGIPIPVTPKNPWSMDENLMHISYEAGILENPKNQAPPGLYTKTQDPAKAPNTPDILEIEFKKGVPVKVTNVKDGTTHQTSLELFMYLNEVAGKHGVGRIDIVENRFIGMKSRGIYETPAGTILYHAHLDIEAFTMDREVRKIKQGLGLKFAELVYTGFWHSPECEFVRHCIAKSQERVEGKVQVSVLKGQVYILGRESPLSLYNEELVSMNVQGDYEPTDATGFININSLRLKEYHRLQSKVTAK

Assays:
Test in all cases: log2 fold change, soluble protein after heating vs DMSO (PISA); higher = thermal stabilisation; K562 cells, 10 uM, 30 min; active = over 0.2 and 3.5 SD of the protein, either way, in both replicates (recomputed)
ibrutinib = compound: C=CC(=O)N1CCC[C@@H](n2nc(-c3ccc(Oc4ccccc4)cc3)c3c(N)ncnc32)C1 [ibrutinib]
Procedure, shortened: (§1)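 Soluble protein was defined as the supernatant after 21,000xg for 90 min. It came from K562 cells at 2×10^6 cells/mL given 10 μM compound for 30 min, heated in aliquots for 3 min across 48°C-58°C, pooled, and extracted in PBS with 0.5% NP-40 at 4°C, and was quantified by TMTpro 16plex LC-MS/MS with equalised channel sums. Thermal stability against control samples, from duplicates, is reported as log2 fold change.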

ralimetinib = compound: CC(C)(C)Cn1c(N)nc2ccc(-c3[nH]c(C(C)(C)C)nc3-c3ccc(F)cc3)nc21 [ralimetinib]
Procedure, shortened: as §1

[1] = compound: CC(C)(O)CC(=O)NCCn1ccc2ncnc(Nc3ccc(Oc4cccc(C(F)(F)F)c4)c(Cl)c3)c21
Procedure, shortened: as §1

[2] = compound: CC(C)C1=C2N=C(C=C(N2N=C1)NCC3=CC=CC=C3)NCCCCCCN
Procedure, shortened: as §1

[3] = compound: CC(C)C[C@@H](C=O)NC(=O)[C@H](CC(C)C)NC(=O)[C@H](CC(C)C)NC(=O)OCc1ccccc1
Procedure, shortened: as §1

[4] = compound: CC1=C(C2=C(C=C1)C(=O)C3=CC=CC=C3N2CCCN)C
Procedure, shortened: as §1

[5] = compound: CC1=C(C=C(C=C1)NC(=O)C2=CC(=CC=C2)C(C)(C)C#N)NC3=CC4=C(C=C3)N=CN(C4=O)C
Procedure, shortened: as §1

[6] = compound: CC1=C(C=C(C=C1)NC(=O)C2=CC(=CC=C2)N(C)C)NC(=O)C3=CC=C(C=C3)O
Procedure, shortened: as §1

[7] = compound: CC1=CC=C(C=C1)SC2=C3C=C(SC3=CN=C2)C(=O)N
Procedure, shortened: as §1

Nexturastat A = compound: CCCCN(Cc1ccc(C(=O)NO)cc1)C(=O)Nc1ccccc1 [Nexturastat A]
Procedure, shortened: as §1

vemurafenib = compound: CCCS(=O)(=O)Nc1ccc(F)c(C(=O)c2c[nH]c3ncc(-c4ccc(Cl)cc4)cc23)c1F [vemurafenib]
Procedure, shortened: as §1

[8] = compound: CCCS(=O)(=O)Nc1ccc(F)c(C(=O)c2c[nH]c3ncc(Cl)cc23)c1F
Procedure, shortened: as §1

[9] = compound: CCCc1cc(C)[nH]c(=O)c1CNC(=O)c1cc(-c2ccnc(N3CCN(C)CC3)c2)cc2c1cnn2C(C)C
Procedure, shortened: as §1

givinostat = compound: CCN(CC)Cc1ccc2cc(COC(=O)Nc3ccc(C(=O)NO)cc3)ccc2c1 [givinostat]
Procedure, shortened: as §1

barasertib = compound: CCN(CCCOc1ccc2c(Nc3cc(CC(=O)Nc4cccc(F)c4)[nH]n3)ncnc2c1)CCOP(=O)(O)O [barasertib]
Procedure, shortened: as §1

IRAK-1-4 Inhibitor I = compound: C1COCCN1CCN2C3=CC=CC=C3N=C2NC(=O)C4=CC(=CC=C4)[N+](=O)[O-] [IRAK-1-4 Inhibitor I]
Procedure, shortened: as §1

pinometostat = compound: CC(C)N(C[C@H]1O[C@@H](n2cnc3c(N)ncnc32)[C@H](O)[C@@H]1O)[C@H]1C[C@@H](CCc2nc3cc(C(C)(C)C)ccc3[nH]2)C1 [pinometostat]
Procedure, shortened: as §1

[10] = compound: CC1=NC(=CC=C1)C2=C(N=C(N2)C(C)(C)C)C3=CC4=NC=CN=C4C=C3
Procedure, shortened: as §1

[11] = compound: CC(=O)c1cnc2ccc(-c3cc(Cl)c(O)c(Cl)c3)nc2c1N[C@H]1CC[C@H](CN(C)C)CC1
Procedure, shortened: as §1

[12] = compound: CC1=C(C(CC(=O)N1)C2=CC=C(C=C2)C(F)(F)F)C(=O)NC3=C(C=C4C(=C3)C=NN4)F
Procedure, shortened: as §1

Measured: log2 fold change

ARRDC1 (UniProt Q8N5I2)
inactive: ibrutinib 0.062 | ralimetinib 0.076 | [1] 0.102 | [2] -0.07 | [3] 0.094 | [4] 0.045 | [5] -0.061 | [6] 0 | [7] 0.071 | Nexturastat A 0.021 | vemurafenib 0.048 | [8] 0.039 | [9] 0.023 | givinostat 0.136 | barasertib -0.179

ASCC2 (UniProt Q9H1I8)
inactive: IRAK-1-4 Inhibitor I -0.005 | ralimetinib 0.041 | [1] -0.144 | [2] 0.022 | [3] 0.297 | pinometostat 0.24 | [5] -0.039 | [6] -0.168 | [10] -0.046 | Nexturastat A 0.054 | vemurafenib -0.138 | [9] 0.073 | givinostat 0.211

ASXL2 (UniProt Q76L83)
inactive: [11] -0.059 | [2] 0.11 | givinostat 0.016

ATP2B2 (UniProt Q01814)
inactive: [11] -0.3 | [2] 0.095 | [5] 0.245 | [7] 0.098 | vemurafenib -0.069 | [8] 0.028 | givinostat 0.015

ARL5B (UniProt Q96KC2)
inactive: ibrutinib -0.061 | [11] -0.084 | [1] -0.079 | [2] 0.125 | [12] -0.068 | [4] 0.143 | [5] 0.121 | [7] -0.079 | Nexturastat A -0.06 | vemurafenib 0.03 | [8] -0.038 | [9] -0.003 | givinostat 0.086 | barasertib 0.093

ATF3 (UniProt P18847)
inactive: ibrutinib 0.081 | [11] -0.113 | ralimetinib -0.024 | [1] 0.072 | [2] -0.087 | [3] 0.179 | [12] -0.229 | [4] -0.102 | [5] 0.075 | [6] 0.033 | [7] -0.151 | Nexturastat A 0.011 | vemurafenib -0.05 | [8] 0 | givinostat 0.048 | barasertib 0.09

ATP12A isoform 2 (UniProt P54707)
inactive: IRAK-1-4 Inhibitor I 0.013 | ibrutinib 0.009 | [11] -0.033 | ralimetinib -0.031 | [1] -0.036 | [2] 0.162 | [3] -0.005 | pinometostat -0.03 | [4] 0.086 | [5] -0.001 | [6] -0.006 | [7] 0 | [10] 0.005 | Nexturastat A -0.132 | vemurafenib -0.03 | [8] -0.072 | [9] -0.021 | givinostat -0.009 | barasertib 0.015

ARMC8 isoform 6 (UniProt Q8IUR7)
inactive: ibrutinib 0.016 | [11] 0.038 | [2] 0.053 | vemurafenib 0.031 | givinostat 0.075 | barasertib -0.021

ATF6 (UniProt P18850)
inactive: ralimetinib 0.026 | [3] 0.615 | [5] 0.038 | [6] 0.029

ATE1 (UniProt O95260)
inactive: IRAK-1-4 Inhibitor I -0.133 | [11] -0.016 | [1] -0.422 | pinometostat -0.313 | [4] 0.172 | [7] -0.119 | [10] 0.049 | Nexturastat A 0.095 | vemurafenib 0.018 | [8] -0.085

ATP8B2 isoform 3 (UniProt P98198)
inactive: [11] 0.231 | vemurafenib 0.095

ATP1B1 (UniProt P05026)
inactive: IRAK-1-4 Inhibitor I 0.028 | ibrutinib 0.021 | [11] -0.017 | ralimetinib -0.028 | [2] 0.161 | [3] 0.058 | pinometostat 0.026 | [12] 0.085 | [4] 0.044 | [5] -0.053 | [6] -0.044 | [7] 0.061 | [10] 0.037 | vemurafenib -0.053 | [8] -0.053 | [9] -0.264 | givinostat -0.042 | barasertib -0.074

ATG10 (UniProt Q9H0Y0)
inactive: ibrutinib -0.036 | [1] 0 | [2] -0.232 | [12] 0.007 | [4] -0.21 | Nexturastat A -0.038 | vemurafenib -0.085 | givinostat -0.002 | barasertib 0.037

ATF7IP isoform 4 (UniProt Q6VMQ6)
inactive: IRAK-1-4 Inhibitor I -0.15 | ibrutinib 0.126 | [11] -0.448 | [1] -0.35 | [2] 0.09 | pinometostat 0.219 | [12] 0.227 | [4] 0.032 | [10] -0.078 | Nexturastat A 0.328 | vemurafenib 0.086 | [9] 0.053 | givinostat 0.149 | barasertib -0.005

ASXL1 (UniProt Q8IXJ9)
inactive: ibrutinib 0.026 | [1] -0.016 | [2] 0.163 | [4] -0.215 | [5] 0.139 | [7] -0.095 | Nexturastat A -0.211 | [8] -0.244 | [9] 0.095 | givinostat 0.06 | barasertib -0.004

ATG4A (UniProt Q8WYN0)
inactive: vemurafenib 0.344

ASNS (UniProt P08243)
inactive: IRAK-1-4 Inhibitor I 0.046 | ibrutinib 0.015 | [11] 0.006 | ralimetinib -0.033 | [1] -0.029 | [2] 0.017 | [3] -0.003 | pinometostat -0.034 | [4] -0.007 | [5] 0.008 | [6] 0.007 | [7] 0.026 | [10] 0.025 | Nexturastat A -0.045 | vemurafenib 0.007 | [8] 0.013 | [9] 0 | givinostat -0.004 | barasertib -0.004

ATPSCKMT (UniProt Q6P4H8)
inactive: ibrutinib -0.056 | [11] 0.002 | [1] -0.091 | [2] 0.01 | [12] 0.041 | [4] -0.001 | [5] 0.118 | [7] 0.088 | Nexturastat A -0.173 | vemurafenib 0.005 | [8] 0.001 | [9] -0.073 | givinostat -0.115 | barasertib -0.025

ATP6V0A1 (UniProt Q93050)
inactive: ibrutinib 0.047 | barasertib -0.095

ASS1 (UniProt P00966)
inactive: ibrutinib 0.05 | [11] -0.155 | ralimetinib -0.022 | [1] -0.064 | [2] -0.122 | [3] 0.006 | [4] -0.021 | [5] -0.073 | [6] -0.015 | [7] -0.06 | Nexturastat A 0.023 | vemurafenib -0.042 | [8] 0.003 | [9] 0.004 | givinostat 0.031 | barasertib -0.063

Reprinted from above (two entries):
ATG4A (UniProt Q8WYN0)
inactive: vemurafenib 0.344

ASNS (UniProt P08243)
inactive: IRAK-1-4 Inhibitor I 0.046 | ibrutinib 0.015 | [11] 0.006 | ralimetinib -0.033 | [1] -0.029 | [2] 0.017 | [3] -0.003 | pinometostat -0.034 | [4] -0.007 | [5] 0.008 | [6] 0.007 | [7] 0.026 | [10] 0.025 | Nexturastat A -0.045 | vemurafenib 0.007 | [8] 0.013 | [9] 0 | givinostat -0.004 | barasertib -0.004

Further entries follow.

ATP5F1B (UniProt H0YI37)
inactive: ibrutinib 0.213 | [1] 0.156 | [5] -0.234 | [7] -0.314 | Nexturastat A 0.159 | vemurafenib -0.114 | [8] -0.352 | barasertib -0.015
